Results on two substances are retold here after article PMC5725494, “Cell cycle-dependent phosphorylation regulates RECQL4 pathway choice and ubiquitination in DNA double-strand break repair”.

The chains behind the UniProt entries cited, without tags or fusion partners.
UniProt Q16531: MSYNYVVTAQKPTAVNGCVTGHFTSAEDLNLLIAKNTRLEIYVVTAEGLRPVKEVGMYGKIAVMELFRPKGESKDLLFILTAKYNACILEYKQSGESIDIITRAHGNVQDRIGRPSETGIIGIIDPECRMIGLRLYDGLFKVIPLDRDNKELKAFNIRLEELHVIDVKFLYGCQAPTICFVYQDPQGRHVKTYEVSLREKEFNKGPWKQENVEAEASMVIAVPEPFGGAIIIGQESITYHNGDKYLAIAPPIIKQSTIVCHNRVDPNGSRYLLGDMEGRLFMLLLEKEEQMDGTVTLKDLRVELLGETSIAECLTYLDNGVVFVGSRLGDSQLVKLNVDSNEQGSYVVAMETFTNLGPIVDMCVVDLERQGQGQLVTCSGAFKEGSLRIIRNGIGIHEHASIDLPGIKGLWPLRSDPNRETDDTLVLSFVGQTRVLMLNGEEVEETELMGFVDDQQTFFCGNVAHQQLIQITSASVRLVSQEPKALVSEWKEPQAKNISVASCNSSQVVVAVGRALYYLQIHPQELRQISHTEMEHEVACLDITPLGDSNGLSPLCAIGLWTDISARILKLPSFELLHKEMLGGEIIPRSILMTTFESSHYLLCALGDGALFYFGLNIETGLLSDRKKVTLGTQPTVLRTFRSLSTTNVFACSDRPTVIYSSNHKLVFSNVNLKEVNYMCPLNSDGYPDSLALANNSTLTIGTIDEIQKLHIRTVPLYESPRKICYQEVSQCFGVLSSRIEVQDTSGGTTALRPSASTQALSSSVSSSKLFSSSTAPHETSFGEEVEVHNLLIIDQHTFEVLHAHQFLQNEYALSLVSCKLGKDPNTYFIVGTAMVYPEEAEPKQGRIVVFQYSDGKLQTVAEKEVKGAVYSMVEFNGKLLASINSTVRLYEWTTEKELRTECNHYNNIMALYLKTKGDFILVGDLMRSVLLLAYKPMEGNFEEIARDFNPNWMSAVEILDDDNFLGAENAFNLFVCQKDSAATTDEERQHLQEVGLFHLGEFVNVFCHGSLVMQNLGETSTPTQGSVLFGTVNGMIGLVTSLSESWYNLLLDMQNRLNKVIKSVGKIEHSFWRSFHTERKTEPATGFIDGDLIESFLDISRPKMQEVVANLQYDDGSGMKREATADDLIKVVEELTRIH
UniProt P12956: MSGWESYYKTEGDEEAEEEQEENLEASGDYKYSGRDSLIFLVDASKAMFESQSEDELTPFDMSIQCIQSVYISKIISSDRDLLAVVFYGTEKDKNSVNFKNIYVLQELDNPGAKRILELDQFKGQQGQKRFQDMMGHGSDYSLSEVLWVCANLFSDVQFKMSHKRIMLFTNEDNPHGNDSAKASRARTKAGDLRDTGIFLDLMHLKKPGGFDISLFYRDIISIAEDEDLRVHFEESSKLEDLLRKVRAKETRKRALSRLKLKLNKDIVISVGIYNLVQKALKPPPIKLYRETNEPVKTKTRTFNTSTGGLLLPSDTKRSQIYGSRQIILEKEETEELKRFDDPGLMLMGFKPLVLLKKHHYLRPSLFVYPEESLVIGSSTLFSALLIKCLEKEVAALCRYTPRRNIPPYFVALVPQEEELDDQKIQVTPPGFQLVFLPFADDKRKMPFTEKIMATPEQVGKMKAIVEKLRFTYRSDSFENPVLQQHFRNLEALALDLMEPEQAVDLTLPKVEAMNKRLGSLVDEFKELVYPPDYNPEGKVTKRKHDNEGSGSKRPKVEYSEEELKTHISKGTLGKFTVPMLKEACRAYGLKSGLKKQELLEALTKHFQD

Assay [1] deals with T1, 3×FLAG-tagged RQ4-2D (RECQL4 Ser89Asp/Ser251Asp) (human) (UniProt O94761).
T1 sequence: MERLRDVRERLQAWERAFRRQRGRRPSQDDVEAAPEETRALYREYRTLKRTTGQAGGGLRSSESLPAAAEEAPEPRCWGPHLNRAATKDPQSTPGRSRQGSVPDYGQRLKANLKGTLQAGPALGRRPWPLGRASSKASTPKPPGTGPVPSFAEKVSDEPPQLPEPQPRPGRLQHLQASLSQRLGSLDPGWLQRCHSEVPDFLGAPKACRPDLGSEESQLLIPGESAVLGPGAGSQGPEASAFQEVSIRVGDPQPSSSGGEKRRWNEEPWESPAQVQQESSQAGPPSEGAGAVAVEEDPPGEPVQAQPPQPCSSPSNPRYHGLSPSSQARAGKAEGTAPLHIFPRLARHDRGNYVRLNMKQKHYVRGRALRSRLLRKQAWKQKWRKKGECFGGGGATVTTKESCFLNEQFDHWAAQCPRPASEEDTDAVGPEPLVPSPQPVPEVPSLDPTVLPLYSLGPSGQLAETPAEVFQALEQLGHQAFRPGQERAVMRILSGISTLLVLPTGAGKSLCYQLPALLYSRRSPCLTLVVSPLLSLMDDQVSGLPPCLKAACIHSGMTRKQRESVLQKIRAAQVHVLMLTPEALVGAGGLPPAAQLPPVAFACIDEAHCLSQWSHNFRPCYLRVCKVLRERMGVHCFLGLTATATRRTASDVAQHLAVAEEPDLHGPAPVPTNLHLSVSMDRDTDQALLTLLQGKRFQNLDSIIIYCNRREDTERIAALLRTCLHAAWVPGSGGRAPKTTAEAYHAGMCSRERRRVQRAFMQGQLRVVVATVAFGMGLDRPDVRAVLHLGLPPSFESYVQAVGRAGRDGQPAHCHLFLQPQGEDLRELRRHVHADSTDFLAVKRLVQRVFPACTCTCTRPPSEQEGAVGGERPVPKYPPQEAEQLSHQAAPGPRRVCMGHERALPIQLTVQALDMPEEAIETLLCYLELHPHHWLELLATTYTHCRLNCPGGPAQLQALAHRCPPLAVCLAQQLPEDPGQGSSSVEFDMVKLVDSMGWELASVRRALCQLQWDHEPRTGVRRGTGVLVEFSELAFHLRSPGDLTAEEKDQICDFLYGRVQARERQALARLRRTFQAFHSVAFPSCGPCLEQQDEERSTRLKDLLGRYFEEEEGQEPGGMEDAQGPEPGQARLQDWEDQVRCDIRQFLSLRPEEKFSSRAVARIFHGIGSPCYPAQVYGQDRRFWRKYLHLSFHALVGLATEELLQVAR
Put plainly: co-IP; M2 FLAG beads on lysate (2 mg protein) of HEK293T cells expressing 3×FLAG-tagged RECQL4, mutants or truncations, overnight at 4 °C; lysis buffer 2 with Benzonase; Western blotting of endogenous partners. A general note: In western blotting, separated proteins are transferred to a membrane and probed.

For assay [2], the target named is T2, 3×FLAG-tagged RECQL4 (wild type, full length) (human) (UniProt O94761).
T2 sequence: T1 sequence with D89S, D251S
The description is as above.

For assay [3], the target named is T3, GFP-tagged RECQL4 (wild type) (human) (UniProt O94761).
T3 sequence: T1 sequence with D89S, D251S
The experiment in a line: co-IP; GFP-TRAP beads on lysate (2 mg protein) of HEK293T cells expressing GFP-tagged RECQL4 or mutants, overnight at 4 °C; lysis buffer 2 (40 mM Tris-HCl pH 7.4, 100 mM NaCl, 2 mM MgCl2, 0.2% NP-40, 0.3% Triton) with Benzonase; cells irradiated with 10 Gy; asynchronous, or synchronised in G1 with aphidicolin and released 10 h for S/G2; Western blotting.

Substitutions are numbered along the chain they refer to. These are yes or no findings as the source states them, for the method shown. In cells and extracts the contact can be indirect. Some results given as binding are weak or reduced against the parent protein; the word gives no strength. Tags and fused reporters may be left off the sequences shown.

As for DDB1 (from UniProt Q16531 1-1140), the binding result in assay [1] and in assay [2] was “binds” throughout.
Ku70 (from UniProt P12956 1-609): the binding entry in assay [3] is “binds”.
